Reference: paper PMC11374337 (2024)
These are yes or no findings as the source states them, for the method shown. Some results given as binding are weak or reduced against the parent protein; the word gives no strength.

The chains behind the UniProt entries cited, without tags or fusion partners. Residues count along the entry.
UniProt P05556, residues 752-798: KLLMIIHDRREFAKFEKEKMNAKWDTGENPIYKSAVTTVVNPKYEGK
UniProt P05106, residues 742-788: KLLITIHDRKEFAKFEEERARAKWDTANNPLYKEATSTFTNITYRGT
UniProt Q96AC1: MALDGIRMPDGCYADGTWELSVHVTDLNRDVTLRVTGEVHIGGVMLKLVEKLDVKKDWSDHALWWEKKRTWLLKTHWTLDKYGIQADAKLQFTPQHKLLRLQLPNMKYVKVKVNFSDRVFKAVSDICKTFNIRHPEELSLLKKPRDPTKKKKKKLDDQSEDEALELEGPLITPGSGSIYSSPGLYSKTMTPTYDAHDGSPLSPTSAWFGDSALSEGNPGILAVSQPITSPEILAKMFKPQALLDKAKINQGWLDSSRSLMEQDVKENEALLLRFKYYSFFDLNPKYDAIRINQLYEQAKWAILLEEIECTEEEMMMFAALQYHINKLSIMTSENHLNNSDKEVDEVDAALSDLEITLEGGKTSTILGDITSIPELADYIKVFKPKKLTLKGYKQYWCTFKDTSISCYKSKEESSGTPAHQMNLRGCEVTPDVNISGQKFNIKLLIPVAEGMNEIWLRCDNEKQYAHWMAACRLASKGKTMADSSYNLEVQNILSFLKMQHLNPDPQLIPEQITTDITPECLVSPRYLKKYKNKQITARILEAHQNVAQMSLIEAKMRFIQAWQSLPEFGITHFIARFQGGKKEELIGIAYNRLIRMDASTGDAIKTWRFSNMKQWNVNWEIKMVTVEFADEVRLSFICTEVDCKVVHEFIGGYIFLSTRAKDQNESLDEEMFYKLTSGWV

Columns and labels:
[1] = target: Strep-tag integrin β1 cytoplasmic tail (human) (UniProt P05556); assay: pull-down; TwinStrep-tagged integrin tails (about 2.5 μg) on Strep-Tactin Sepharose beads; 2 μM His-SUMO protein in 50 mM Tris pH 8, 150 mM NaCl, 10% glycerol, 0.05% Tween, 10 μM ZnCl2, 2 h at 4°C; eluted with 50 mM biotin; western blot; both purified
[2] = target: Strep-tag integrin β3 cytoplasmic tail, wild type (not stated (human or mouse cDNA cloned)) (UniProt P05106); assay: as above

binding [1]: binds | binding [2]: binds
Substance: His6SUMO-kindlin2 (from UniProt Q96AC1 1-680)
